Assay results: PubChem BioAssay AID540276 (National Center for Advancing Translational Sciences (NCATS), 2011)
Where “and” joins values, the source holds several entries; their conditions need not be identical. Equal entries are not always repeated. Out of some 300,000 compounds screened, about 5,400 (1.8%) were called active. The inconclusive results got no clear call from the source; some entries with a clear call stand among them for comparison. The call rests on the fitted dose curve; tested in HEK293 cells. A potency beside an inconclusive call is a rough fit, not a confirmed value.

assay: qHTS for inhibitors of binding or entry into cells for Marburg Virus; settings: Marburg virus pseudotyped entry inhibition, cell reporter; activity change, negative = inhibition: at 37.8 µM (top of the series) unless noted
On the % scale 0 is the no-effect control and ±100 the full control effect; potency means the concentration at half of the fitted maximal effect.

Row | Compound | activity change, negative = inhibition | Potency
1 | O=C(NN1C(=O)CSC1=S)C(=O)NN1C(=O)CSC1=S | inactive: 28.2% [at 46.1 µM] | 
2 | CS(=O)(=O)N1CCC(C(=O)NCc2ccccc2)CC1 | inconclusive: 2.05% [activator] [at 46.1 µM] | 
3 | Cc1onc(-c2ccccc2)c1C(=O)N/N=C/c1c(F)cccc1Cl | inactive: 21.6% | 
4 | Cc1nn(CC(=O)NCc2cccc(Br)c2)c(=O)c2c1sc1ccccc12 | inactive: 8.75% [at 46.1 µM] | 
5 | Cc1c(NS(=O)(=O)c2ccccc2)cc(Cl)c(O)c1C | inactive: 5.49% | 
6 | CCOc1cc(/C=N/NC(=O)CN2CCCCC2)ccc1OCc1ccc(Cl)cc1 |  | inconclusive: 1.41 µM [activator, partial curve, poor fit]
7 | CCOc1ccc(S(=O)(=O)N2CCN(C(=O)c3ccc(C)c(S(=O)(=O)N4CCOCC4)c3)CC2)cc1 |  | inconclusive: 22.4 µM [inhibitor, single point]
8 | Clc1cncc(Cl)c1N/N=C/c1ccncc1 |  | inconclusive: 7.08 µM [inhibitor, partial curve, poor fit]
9 | Cc1oc2ccc(O)c(CN3CCN(Cc4ccccc4)CC3)c2c1C(=O)Nc1ccccc1 |  | inconclusive: 31.6 µM [inhibitor, single point]
10 | CCc1cc(C(=O)NNC(=O)CCl)sc1C |  | inconclusive: 13 µM [inhibitor, partial curve, poor fit]
11 | COc1ccc(Nc2ncnc3scc(-c4ccc(OC)cc4)c23)cc1 |  | active: 7.31 µM
12 | COc1ccccc1-c1ccc(=O)n(CC(=O)NC2CCc3ccccc32)n1 (configuration not stated) |  | inconclusive: 8.91 µM [inhibitor, partial curve, poor fit]
13 | CCOCCc1nn2c(=O)cc(CSCC(=O)Nc3cc(C)cc(C)c3)nc2s1 | inactive: -10.8% [at 46.1 µM] | 
14 | O=C(NC(=S)Nc1ccc2c(c1)OCCO2)c1ccccc1F |  | inconclusive: 15.8 µM [inhibitor, single point]
15 | CCOc1ccc(N=c2cc(-c3ccc(OC)cc3)oc3ccccc23)cc1 |  | inconclusive: 2.82 µM [inhibitor, partial curve]
16 | CC(Sc1nc(N2CCOCC2)c2c(c1C#N)CC(C)(C)OC2)C(=O)Nc1ccccc1 (configuration not stated) |  | inconclusive: 9.2 µM [activator, partial curve]
17 | CS(=O)(=O)c1nc(-c2ccc(F)cc2)cc(C(F)(F)F)n1 |  | inconclusive: 6.31 µM [inhibitor, full curve, poor fit]
18 | CCCOc1ccc(N2C(=O)CC(SC(=NCC)Nc3cccc(F)c3)C2=O)cc1 (configuration not stated) |  | inconclusive: 13 µM [inhibitor, partial curve, poor fit]
19 | c1ccc(-n2nnnc2-c2cnc(-c3cccnc3)nc2-c2cccs2)cc1 |  | inconclusive: 32.6 µM [inhibitor, single point]
20 | CC(C)Cn1c(N)c(C(=O)COC(=O)/C=C/c2cccs2)c(=O)n(C)c1=O |  | inconclusive: 3.98 µM [inhibitor, full curve]
21 | COc1ccc(C(=O)NC(=O)Nc2ncccc2C)cc1 |  | inconclusive: 5.8 µM [activator, full curve]
22 | COc1ccc2[nH]c(=O)c(CN(CC3CCCO3)C(=S)Nc3cccc(C)c3)cc2c1 (configuration not stated) | inactive: 1.03% [at 46.1 µM] | 
23 | O=C1CSC(c2c(F)cccc2Cl)N1c1cccc(F)c1 (configuration not stated) | inactive: 4.96% | 

Row | Compound | activity change, negative = inhibition | Potency
24 | COc1ccc(NC(=O)CSc2nccn2-c2ccccc2)cc1 | inactive: 25.6% [at 46.1 µM] | 
25 | Cc1ccccc1C(=O)Nc1ccccc1 |  | inconclusive: 15.8 µM [activator, single point]
26 | N#C/C(C(=O)N1CCCCC1)=C1/N=C(N)c2ccccc21 |  | inconclusive: 1.26 µM [inhibitor, partial curve, poor fit]
27 | N#CC1=C(N)Oc2cc(N)ccc2C1c1ccc(F)cc1F (configuration not stated) |  | inconclusive: 2 µM [inhibitor, full curve]
28 | Cc1nc2ccc(NC(=O)c3ccco3)cc2s1 |  | inconclusive: 0.631 µM [activator, full curve]
29 | CC1(C)CN(O)CCN1O |  | inconclusive: 0.282 µM [inhibitor, partial curve, poor fit]
30 | CC(OC(=O)c1cc(O)c2ccccc2c1O)C(=O)Nc1ccc(C(N)=O)cc1 (configuration not stated) |  | inconclusive: 35.5 µM [inhibitor, single point]
31 | CCC(=O)Nc1ccc2c(c1)nc(CCN1CCN(c3ccccn3)CC1)n2C |  | inconclusive: 6.31 µM [inhibitor, single point]
32 | Cc1cc(NC(=O)CN2CCN(C/C=C/c3ccccc3)CC2)c([N+](=O)[O-])cc1C |  | inconclusive: 4.47 µM [inhibitor, partial curve, poor fit]
33 | OCCN1CCN(C(=S)Nc2ccccc2)CC1 |  | inconclusive: 0.891 µM [inhibitor, partial curve, poor fit]
34 | CCOC(=O)c1c(-c2ccc(C)o2)csc1NC(=S)NC(=O)c1cccs1 |  | inconclusive: 35.5 µM [inhibitor, partial curve, poor fit]
35 | Oc1cc2c(cc1O)[C@H]1c3ccc(O)c(O)c3OC[C@@]1(O)C2 |  | inconclusive: 11.2 µM [inhibitor, partial curve, poor fit]
36 | COC(=O)c1[nH]c2ccc(C)cc2c1NC(=O)CN1CCN(c2ccccc2)CC1 |  | inconclusive: 1.83 µM [inhibitor, full curve, poor fit]
37 | CC(C)N(Cc1ccccc1)CC(O)COc1ccc(S(=O)(=O)N2CCOCC2)cc1Cl (configuration not stated) |  | inconclusive: 35.5 µM [inhibitor, single point]
38 | O=C(O)c1ccc(N=NN2CCCC2)cc1 |  | inconclusive: 3.55 µM [activator, full curve]
39 | COCC(=O)C(C(=O)OC)[C@H](CCc1ccccc1)NC(=O)OC (some centres not stated) |  | inconclusive: 5.96 µM [activator, single point]
40 | CCOC(=O)c1ccccc1NC(=O)c1cc2c(s1)-c1c(C)cccc1OC2 |  | inconclusive: 15.8 µM [activator, single point]
41 | COc1ccccc1NC(=O)c1cc(S(=O)(=O)NCc2ccccc2)ccc1F |  | inconclusive: 4.47 µM [inhibitor, full curve, poor fit]
42 | COc1ccccc1NC(=O)c1ccc(S(=O)(=O)NCc2ccco2)cc1 | inactive: -11.2% [at 46.1 µM] | 
43 | COc1ccc(S(=O)(=O)Nc2cc3c4c(c2)CC(=O)N4CCC3)cc1C |  | inconclusive: 0.631 µM [inhibitor, single point]
44 | COc1cc(CCC(=O)Nc2c(C(=O)N3CCN(c4ccccc4)CC3)oc3ccccc23)on1 | inactive: -13% [at 46.1 µM] | 
45 | C=CCN(c1ccc(C(=O)Nc2ccc(C)c(C)c2)cc1)S(C)(=O)=O |  | inconclusive: 3.55 µM [activator, single point]
46 | O=C(Nc1cccc(O)c1)c1ccc(Br)cc1 | inactive: -24.5% | 

Row | Compound | activity change, negative = inhibition | Potency
47 | CCN(CC)S(=O)(=O)c1cccc(NC(=O)C(=O)c2c(-c3ccccc3)cc3ccccn23)c1 |  | inconclusive: 35.5 µM [inhibitor, single point]
48 | C=CC(N)CCC(=O)O (configuration not stated) |  | inconclusive: 1.46 µM [activator, full curve]
49 | Cc1ccc(S(=O)(=O)Oc2cccc(/C=N/n3cnnc3)c2)cc1 |  | inconclusive: 32.6 µM [inhibitor, single point]
50 | CCOC(=O)[C@@H](C)N1[C@H](C)[C@H](c2ccccc2)Oc2cc(Br)ccc2S1(=O)=O |  | active: 4.45 µM
51 | COC(=O)c1cccc(C(=O)Oc2cccc(Br)c2)n1 | inactive: 15.6% | 
52 | CCOC(=O)C(NC(=O)NCc1ccccc1)(OCC)C(F)(F)F (configuration not stated) |  | inconclusive: 8.91 µM [inhibitor, partial curve]
53 | O=C(Nc1ccc(-c2nc3ccccc3s2)c(O)c1)C1=COCCO1 |  | inconclusive: 0.231 µM [activator, single point]
54 | N#Cc1ccccc1OCC(=O)OCC(=O)NC1CCCCCC1 |  | inconclusive: 1.41 µM [inhibitor, full curve, poor fit]
55 | CCOC(=O)C1=C(N)Oc2cc(O)ccc2C1c1cccc(Cl)c1 (configuration not stated) |  | inconclusive: 0.501 µM [inhibitor, partial curve, poor fit]
56 | Cc1ccc(CNC(=O)c2c(O)nc3ccccn3c2=O)cc1 |  | inconclusive: 1 µM [inhibitor, full curve, poor fit]
57 | O=C(c1ccc2c(c1)N(Cc1ccccc1)C(=O)c1ccccc1S2(=O)=O)N1CCN(c2ccccc2)CC1 | inactive: 19.1% [at 46.1 µM] | 
58 | Cc1ccc(Nc2ncnc3c2oc2ccccc23)cc1 |  | inconclusive: 35.5 µM [inhibitor, single point]
59 | CS(=O)(=O)N(CC(=O)Nc1ccc(Cl)c(Cl)c1)C1CCCCC1 |  | inconclusive: 32.6 µM [inhibitor, single point]
60 | CCOC(=O)c1c(C)[nH]c(C(=O)OCc2ccccc2F)c1C |  | inconclusive: 15.8 µM [inhibitor, single point]
61 | NS(=O)(=O)c1ccc(CNC(=O)Cc2c(F)cccc2Cl)cc1 | inactive: 9.62% [at 46.1 µM] | 
62 | Clc1ccc(OCCOCCN2CCc3ccccc3C2)c(Cl)c1 |  | inconclusive: 35.5 µM [inhibitor, single point]
63 | COc1cc(C(=O)CC2(O)C(=O)N(Cc3ccccc3Cl)c3ccccc32)cc(OC)c1OC (configuration not stated) | inactive: -26.1% [at 46.1 µM] | 
64 | O=C(O)CCCCCCCC(=O)O |  | inconclusive: 12.6 µM [activator, partial curve] and inconclusive: 29.1 µM [activator, single point]
65 | c1ccc(-c2ccccc2OCCN2CCOCC2)cc1 |  | inconclusive: 1.26 µM [activator, single point]
66 | COc1ccccc1-c1cc(C(=O)N2CCCC2)no1 |  | inconclusive: 1.58 µM [activator, partial curve, poor fit]
67 | Cn1c(=N)n(CC(O)c2ccccc2)c2ccccc21 (configuration not stated) |  | inconclusive: 15.8 µM [inhibitor, partial curve, poor fit]

Pulled one by one from the list above:
Row | Compound | activity change, negative = inhibition | Potency
48 | C=CC(N)CCC(=O)O (configuration not stated) |  | inconclusive: 1.46 µM [activator, full curve]
55 | CCOC(=O)C1=C(N)Oc2cc(O)ccc2C1c1cccc(Cl)c1 (configuration not stated) |  | inconclusive: 0.501 µM [inhibitor, partial curve, poor fit]
57 | O=C(c1ccc2c(c1)N(Cc1ccccc1)C(=O)c1ccccc1S2(=O)=O)N1CCN(c2ccccc2)CC1 | inactive: 19.1% [at 46.1 µM] | 
56 | Cc1ccc(CNC(=O)c2c(O)nc3ccccn3c2=O)cc1 |  | inconclusive: 1 µM [inhibitor, full curve, poor fit]
53 | O=C(Nc1ccc(-c2nc3ccccc3s2)c(O)c1)C1=COCCO1 |  | inconclusive: 0.231 µM [activator, single point]
